The results in this text go back to doi:10.1101/2020.05.09.085852 (bioRxiv, 2020).

Protein sequences, listed by entry. Tags and fused reporters are not part of them.
UniProt O32100, whole entry: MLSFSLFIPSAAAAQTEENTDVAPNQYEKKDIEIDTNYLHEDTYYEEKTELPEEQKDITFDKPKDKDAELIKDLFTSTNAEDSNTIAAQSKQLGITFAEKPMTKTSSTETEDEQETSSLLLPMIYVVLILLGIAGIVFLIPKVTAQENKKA
UniProt C0SPA7, whole entry: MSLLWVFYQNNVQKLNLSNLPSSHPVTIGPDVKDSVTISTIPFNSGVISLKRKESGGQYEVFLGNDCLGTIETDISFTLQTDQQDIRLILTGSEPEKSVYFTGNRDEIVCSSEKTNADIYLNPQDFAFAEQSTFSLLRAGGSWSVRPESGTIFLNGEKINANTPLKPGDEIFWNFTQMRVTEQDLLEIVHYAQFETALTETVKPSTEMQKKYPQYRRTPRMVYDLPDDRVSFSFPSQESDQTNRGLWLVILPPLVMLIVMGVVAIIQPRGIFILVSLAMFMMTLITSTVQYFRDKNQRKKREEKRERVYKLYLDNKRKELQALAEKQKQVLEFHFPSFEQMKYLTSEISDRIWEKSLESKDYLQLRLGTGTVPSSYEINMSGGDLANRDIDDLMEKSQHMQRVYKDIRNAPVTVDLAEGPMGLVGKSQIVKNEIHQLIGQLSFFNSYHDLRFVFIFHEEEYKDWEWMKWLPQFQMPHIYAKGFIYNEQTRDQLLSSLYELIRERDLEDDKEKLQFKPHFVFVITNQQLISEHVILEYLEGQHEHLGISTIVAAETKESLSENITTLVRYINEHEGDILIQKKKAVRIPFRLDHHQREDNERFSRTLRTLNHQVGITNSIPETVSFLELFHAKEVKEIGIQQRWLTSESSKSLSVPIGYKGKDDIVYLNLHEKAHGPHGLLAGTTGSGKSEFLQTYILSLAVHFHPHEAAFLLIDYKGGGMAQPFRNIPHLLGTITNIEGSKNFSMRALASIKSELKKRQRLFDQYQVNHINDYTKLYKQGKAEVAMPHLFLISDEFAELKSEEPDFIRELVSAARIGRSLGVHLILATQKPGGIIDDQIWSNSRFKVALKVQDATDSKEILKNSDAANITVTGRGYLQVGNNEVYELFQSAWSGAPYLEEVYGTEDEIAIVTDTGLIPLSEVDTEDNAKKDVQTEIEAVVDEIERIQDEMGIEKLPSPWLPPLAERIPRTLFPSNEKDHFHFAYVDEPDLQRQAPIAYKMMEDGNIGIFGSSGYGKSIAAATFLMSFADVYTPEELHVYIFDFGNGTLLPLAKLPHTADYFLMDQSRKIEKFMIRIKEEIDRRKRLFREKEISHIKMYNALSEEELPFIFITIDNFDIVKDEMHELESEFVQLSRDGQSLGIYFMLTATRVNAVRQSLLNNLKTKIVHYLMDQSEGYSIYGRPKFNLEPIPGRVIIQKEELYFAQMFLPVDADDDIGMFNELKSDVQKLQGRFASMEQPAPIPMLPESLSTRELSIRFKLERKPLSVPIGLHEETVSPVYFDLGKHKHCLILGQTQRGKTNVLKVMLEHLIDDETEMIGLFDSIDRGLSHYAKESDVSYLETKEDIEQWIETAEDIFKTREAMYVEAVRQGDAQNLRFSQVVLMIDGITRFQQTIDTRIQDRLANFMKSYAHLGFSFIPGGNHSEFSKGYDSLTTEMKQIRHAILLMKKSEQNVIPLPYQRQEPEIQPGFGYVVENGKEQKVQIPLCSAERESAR

Common to all, as to experiment: two-hybrid
For assay [1], the target named is T1, YueB (BACTH fusion) (B. subtilis 168) (UniProt O32101).
T1 sequence: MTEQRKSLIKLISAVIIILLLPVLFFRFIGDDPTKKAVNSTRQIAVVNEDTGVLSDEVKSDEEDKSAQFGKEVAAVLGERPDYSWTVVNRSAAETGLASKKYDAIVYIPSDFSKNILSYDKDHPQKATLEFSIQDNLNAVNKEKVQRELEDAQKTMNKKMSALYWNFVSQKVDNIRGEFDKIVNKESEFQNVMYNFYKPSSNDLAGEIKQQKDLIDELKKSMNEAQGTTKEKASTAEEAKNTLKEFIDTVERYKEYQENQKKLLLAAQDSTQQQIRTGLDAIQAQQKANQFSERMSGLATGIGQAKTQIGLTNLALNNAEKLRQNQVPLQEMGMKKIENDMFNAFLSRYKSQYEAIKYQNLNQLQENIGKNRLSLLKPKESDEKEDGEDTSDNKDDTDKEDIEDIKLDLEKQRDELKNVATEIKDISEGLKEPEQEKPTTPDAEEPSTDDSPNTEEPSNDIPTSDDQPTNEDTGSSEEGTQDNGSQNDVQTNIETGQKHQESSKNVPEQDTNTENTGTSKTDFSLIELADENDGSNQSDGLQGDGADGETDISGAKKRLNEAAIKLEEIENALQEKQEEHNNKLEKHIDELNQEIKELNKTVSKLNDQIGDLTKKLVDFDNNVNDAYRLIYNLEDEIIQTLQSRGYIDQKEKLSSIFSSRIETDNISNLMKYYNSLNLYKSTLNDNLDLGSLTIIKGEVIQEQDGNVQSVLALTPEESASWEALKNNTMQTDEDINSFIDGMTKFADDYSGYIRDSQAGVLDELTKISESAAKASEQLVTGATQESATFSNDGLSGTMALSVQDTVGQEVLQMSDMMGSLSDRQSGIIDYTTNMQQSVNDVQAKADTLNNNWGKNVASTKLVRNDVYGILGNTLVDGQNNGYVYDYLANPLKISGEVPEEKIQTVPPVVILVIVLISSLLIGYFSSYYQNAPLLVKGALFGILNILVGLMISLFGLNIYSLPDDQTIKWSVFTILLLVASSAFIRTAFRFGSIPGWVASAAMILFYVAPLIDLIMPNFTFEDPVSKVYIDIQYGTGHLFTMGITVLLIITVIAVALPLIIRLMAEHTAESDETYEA

Assay [2] concerns the target YueC (BACTH fusion) (B. subtilis 168) (UniProt O32100).
The target in assay [3] is YukB (BACTH fusion) (B. subtilis 168) (UniProt C0SPA7).
The target in assay [4] is T2, YukC (BACTH fusion) (B. subtilis 168) (UniProt P71070).
T2 sequence: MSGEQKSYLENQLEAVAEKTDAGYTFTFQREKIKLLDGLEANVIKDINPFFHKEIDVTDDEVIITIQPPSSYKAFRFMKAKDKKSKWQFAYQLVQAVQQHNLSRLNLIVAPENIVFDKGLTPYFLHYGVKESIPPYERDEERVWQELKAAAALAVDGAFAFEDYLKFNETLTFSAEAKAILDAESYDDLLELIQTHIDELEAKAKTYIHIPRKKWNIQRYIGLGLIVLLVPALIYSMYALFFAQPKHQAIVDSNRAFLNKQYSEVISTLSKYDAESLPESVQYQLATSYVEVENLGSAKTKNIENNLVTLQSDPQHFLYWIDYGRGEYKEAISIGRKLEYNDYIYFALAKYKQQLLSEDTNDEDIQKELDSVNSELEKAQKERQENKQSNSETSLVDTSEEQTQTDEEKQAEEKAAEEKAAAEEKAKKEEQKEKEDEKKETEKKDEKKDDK

Assay [5] has as its target YukD (BACTH fusion) (B. subtilis 168) (UniProt P71071).

No constants are given. Whether binding was seen depends on the method and setting. Some entries that bind do so weakly or less than the wild type. Tags and fused reporters may be left off the sequences shown.

B1: YukD (BACTH fusion) (protein, UniProt P71071 1-79)
chain: MYIDITIDLKHYNGSVFDLRLSDYHPVKKVIDIAWQAQSVSMPPREGHWIRVVNKDKVFSGECKLSDCGITNGDRLEIL
On to B1, for which the binding entry in assay [1] is “binds”; in assay [2], “binds”; in assay [3], “no binding”; in assay [4], “binds weakly”; in assay [5], “no binding”.
